{"source": "patent US20250288547A1", "about": "“TREATMENT OF DISEASES CAUSED BY RNA VIRUSES” (Amerimmune LLC, priority 2021, published 2025)", "origin": "cited, not measured here", "tested_on": "COVID-19", "details": "critically ill patients, clinical trials; cited from earlier work", "note": "At least one structure is not confirmed: it was looked up by name or label, or the drawing left a doubt."}
{"smiles": "C[C@@H]1C[C@H]2[C@@H]3CCC4=CC(=O)C=C[C@]4(C)[C@@]3(F)[C@@H](O)C[C@]2(C)[C@@]1(O)C(=O)CO", "note": "[dexamethasone]", "values": [{"measurement": "severe outcomes", "result": "reduced severe outcomes"}]}
